# Test results published in PubChem BioAssay AID2685 (National Center for Advancing Translational Sciences (NCATS), 2010).
# This is one part of the list. The main result of the screen is listed elsewhere. These columns were measured beside it and carry no call. Most of these compounds were active or inconclusive in the main read-out, so they are no random draw. The note in brackets gives the kind of curve behind each potency; many fits are weak.
# Assay: qHTS Assay for Lipid Storage Modulators in Drosophila S3 Cells;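 as to cell number change: cells counted by Cell Tracker Red CMTPX staining in the red channel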
# Conditions: BODIPY lipid droplet fluorescence, 18-24 h; for cell number change: measured here: cell count max response, cells fed with added oleic acid
# Method in brief: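 Laser-scanning cytometry quantifies lipid droplet accumulation (500–530 nm total intensity; droplet/cell object ratio) in oleic acid-fed (400 uM added) Drosophila S3 cells treated with a concentration series. 20 uM Triacsin C defined 100% inhibition.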
# [1] = measured here: lipid fluorescence (Fed channel) AC50, cells fed with added oleic acid
# [2] = measured here: cell number channel AC50, cells fed with added oleic acid
SMILES,cell number change [%],AC50 [1],AC50 [2]
O=C(Nc1ccc(N2CCCC2)cc1)c1cc(Cl)ccc1Cl,-17,,
COc1ccc(C(C)(C)C)cc1NC(=O)c1cc(S(=O)(=O)N(C)C)ccc1N1CCCC1,,"14.6 µM [falling, partial curve]",
COc1ccc(NC(=O)C2CCN(C(=O)c3ccco3)CC2)c(OC)c1,-3.36,"6.51 µM [rising, single point]",
CC(C)c1ccc(NC(=O)c2cccc(NC3=NC4CS(=O)(=O)CC4S3)c2)cc1 (configuration not stated),-8.36,"29.1 µM [falling, single point]",
Cc1ccc(C(=O)Nc2scc(-c3ccccc3)c2C(=O)O)o1,20.6,"0.517 µM [falling, full curve]","6.51 µM [rising, single point]"
Cn1cccc1Cc1nnc(SCC(=O)Nc2ccc3c(c2)OCO3)n1-c1ccc(F)cc1,-2.99,,
Cc1ccc(OCCC(=O)OCC(=O)Nc2cc(C)nn2-c2ccccc2)cc1,67.8,"29.1 µM [rising, single point]","9.2 µM [rising, partial curve]"
O=C(OCCn1cncn1)c1cc2ccccc2oc1=O,-22.9,"29.1 µM [falling, single point]",
COc1ccc(C(=O)NNC(=O)Nc2ccc(Cl)cc2)cc1,,"0.651 µM [rising, full curve]","0.731 µM [rising, partial curve]"
CC1(C)CC(=O)C(C2C3=C(CC(C)(C)CC3=O)Oc3c(Br)cc(Br)cc32)=C(O)C1 (configuration not stated),-2.07,"29.1 µM [falling, single point]","0.146 µM [rising, full curve, poor fit]"
CN1/C(=C\C=C2/SC(=S)NC2=O)C(C)(C)c2ccccc21,-97.9,"29.1 µM [falling, partial curve, poor fit]","8.2 µM [falling, partial curve]"
CCCC(=O)N(CCN1CCOCC1)c1nc2c(OC)ccc(C)c2s1,-65.7,"18.4 µM [falling, single point]","20.6 µM [falling, partial curve, poor fit]"
Cc1ccc(-c2noc(CSc3nc(N)cc(N)n3)n2)cc1,,,"1.64 µM [rising, partial curve, poor fit]"
Cc1noc(C)c1C(=O)OCC(=O)Nc1cc(Cl)ccc1Oc1ccccc1,,"29.1 µM [rising, single point]",
C=C(C)CN(CC)C(=O)CSc1ccc(S(=O)(=O)N2CCN(C)CC2)cn1,-15.2,,
CC(C)c1ccc(NC(=O)N2CCN(S(=O)(=O)c3ccccc3)CC2)cc1,-46.6,"16.4 µM [falling, partial curve]","20.6 µM [falling, single point]"

# Some entries already given with just AC50 [2] and AC50 [1]:
SMILES,AC50 [2],AC50 [1]
O=C(OCCn1cncn1)c1cc2ccccc2oc1=O,,"29.1 µM [falling, single point]"
COc1ccc(C(=O)NNC(=O)Nc2ccc(Cl)cc2)cc1,"0.731 µM [rising, partial curve]","0.651 µM [rising, full curve]"
